Results taken from patent US20070178577A1, “Method for effecting the anaerobic biological decomposition of organsiloxanes” (WACKER CHEMIE AG, priority 2004, published 2007).

Tested on: Sewage sludge from a municipal sewage treatment plant
Test: Anaerobic decomposition of dimethylsilanediol (DMSD) by sewage sludge with nitrate as electron acceptor, 1H-NMR
Text: Sewage sludge from a municipal sewage treatment plant was taken off from running operations under oxygen-free conditions (N2-comprising sample vessels). To separate off interfering substrates, the cell mass was resuspended in 5-times the volume of an oxygen-free buffer (50 mmol/l of potassium phosphate pH 6.8) and centrifuged off. Oxygen-free solutions were produced by degassing the solution and purging with gaseous nitrogen.
The operation (resuspending/centrifuging) was repeated 3 times.
The washed oxygen-free cell mass was transferred in the absence of oxygen into shake flasks comprising culture medium (10 g of moist cell mass per 100 ml of medium). For control batches, the sewage sludge was autoclaved and inactivated thereby. Culturing proceeded in a minimal medium (SM1) without the addition of complex nutrients. The culture medium was composed as follows:
As electron acceptor, in addition, 5 g/l of KNO3 were added. As sole carbon source, finally dimethylsilane-diol (water-soluble; molar weight 92 g/l) was added to the medium. The concentration in the batches was 1 mmol/l. Culturing proceeded under anaerobic conditions on orbital shakers at a temperature of 30° C. The total culture time was 11 days. Samples of the culture medium were taken off at regular intervals and analyzed immediately. The samples were likewise taken off under anaerobic conditions (glove box, N2 atmosphere) directly from the shake flasks.
Analysis: In experiments using DMSD as a substrate, the change in concentration of DMSD in the aqueous phase was determined by means of proton magnetic resonance spectroscopy (^1H-NMR). The intense signal at 0.164 ppm is very suitable here. Samples (0.9 ml) from the culture batches were taken off for this directly (via the stopper) from the vessel, admixed with standard (TSP in D2O; TSP=3-(trimethylsilyl)propionic acid-D4 sodium salt) and analyzed in the spectrometer. The DMSD signal can be quantified exactly via the known standard signal).

C[Si](C)(O)O [DMSD, Dimethylsilanediol]
DMSD (Batch sewage sludge, anaerobic, 30° C., incubation time 0 days): 90 mg/L | DMSD (Batch sewage sludge, anaerobic, 30° C., incubation time 2 days): 85 mg/L | DMSD (Batch sewage sludge, anaerobic, 30° C., incubation time 4 days): 73 mg/L | DMSD (Batch sewage sludge, anaerobic, 30° C., incubation time 7 days): 64 mg/L | DMSD (Batch sewage sludge, anaerobic, 30° C., incubation time 11 days): 55 mg/L | DMSD (Control batch, inactivated (autoclaved) sewage sludge, incubation time 0 days): 87 mg/L | DMSD (Control batch, inactivated (autoclaved) sewage sludge, incubation time 2 days): 87 mg/L | DMSD (Control batch, inactivated (autoclaved) sewage sludge, incubation time 4 days): 86 mg/L | DMSD (Control batch, inactivated (autoclaved) sewage sludge, incubation time 7 days): 83 mg/L | DMSD (Control batch, inactivated (autoclaved) sewage sludge, incubation time 11 days): 79 mg/L
